Test results as given in paper doi:10.1101/2020.01.31.926402.

Target: Br-FLAG (murine BR) (murine)
Test: co-IP

B1: UQCRC1, mouse (protein, UniProt Q9CZ13 35-480)
chain: TATFAQALQSVPETQVSILDNGLRVASEQSSHATCTVGVWIDAGSRYETEKNNGAGYFLEHLAFKGTKNRPGNALEKEVESIGAHLNAYSTREHTAYLIKALSKDLPKVVELLADIVQNSSLEDSQIEKERDVILREMQENDASMQNVVFDYLHATAFQGTPLAQAVEGPSENVRRLSRTDLTDYLNRHYKAPRMVLAAAGGVEHQQLLDLAQKHLSSVSRVYEEDAVPGLTPCRFTGSEIRHRDDALPLAHVAIAVEGPGWANPDNVTLQVANAIIGHYDCTYGGGVHLSSPLASVAVANKLCQSFQTFNISYSDTGLLGAHFVCDAMSIDDMVFFLQGQWMRLCTSATESEVTRGKNILRNALVSHLDGTTPVCEDIGRSLLTYGRRIPLAEWESRIQEVDAQMLRDICSKYFYDQCPAVAGYGPIEQLPDYNRIRSGMFWLRF
  binding: binds

Results are given in words; binding and its absence hold for the method and conditions named. Binding seen in cells or lysates may run through a third protein. A result given as binding can be weak or reduced; the word gives no strength.
